± gives the uncertainty stated by the source. Many of these values have a large error.
Test: self-splicing fitness, log relative to wild type (ln ratio); higher = more splicing; Tetrahymena group I intron in knt gene, E. coli kanamycin selection, DiMSum; sequences stand for … in CUCUCU…GGAGGGAAAAGUUAUCAGGCAUGCACCUGGUAGCUAGUCUUUAAACCAAUAGAUUGCAUCGGUUUAAAAGGCAAGACCGUCAAAUUGCGGGAAAGGGGUCAACAGCCGUUCAGUACCAAGUCUCAGGGGAAACUUUGAGAUGGCCUUGCAAAGGGUAUGGUAAUAAGCUGACGGACAUGGUCCUAACCACGCAGCCAAGUCCUAAGUCAACAGAUCUUCUGUUGAUAUGGAUGCAGUUCACAGACUAAAUGUCGGUCGGGGAAGAUGUAUUCUUCUCAUAAGAUAUAGUCGGACCUCUCCUUAAUGGGAGCUAGCGGAUGAAGUGAUGCAACACUGGAGCCGCUGGGAACUAAUUUGUAUGCGAAAGUAUAUUGAUUAGUUUUGGAGUACUCGUGGUCG
Summary of the method: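 DiMSum derived fitness as the error-weighted combination of fold changes across replicates, kanamycin versus no kanamycin, normalised to wild type. E. coli BL21(DE3) held the library, which randomised all eight P1ex-region intron nucleotides within the knt kanamycin-resistance gene on pET-22b(+). Six replicate transformations grew overnight at 37°C or 30°C on LB agar with or without 25 μg/mL kanamycin, also containing 100 μg/mL carbenicillin, 50 μM IPTG and 0.2% rhamnose, and pooled colonies were amplicon-sequenced on an Illumina HiSeq 2500.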

Sequence | self-splicing fitness (ln) (30 °C) | self-splicing fitness (ln) (37 °C)
CGGAAGCAAUAUUACGCGGC | -3.5 ± 1 | -2.07 ± 1.1
CGUGAGCAAUAUUACGUACG | -3.37 ± 0.61 | –
UAGCAGCAAUAUUACGGCCC | -2.71 ± 1.1 | –
GUGCAGCAAUAUUACGCGCA | – | -2.94 ± 0.74
UCGGAGCAAUAUUACGCUUU | -4.01 ± 0.53 | –
AUUGAGCAAUAUUACGGGGC | -3.06 ± 0.26 | -3.09 ± 0.3
GCGAAGCAAUAUUACGAGCU | -2.99 ± 0.79 | -0.926 ± 0.68
CGAAAGCAAUAUUACGAGAA | – | -2.3 ± 0.57
CUUCAGCAAUAUUACGCUCU | – | -2.99 ± 0.74
GACGAGCAAUAUUACGAGUU | -3.06 ± 0.34 | -2.28 ± 0.79
GGGGAGCAAUAUUACGUUGC | -1.86 ± 0.71 | –
GGGCAGCAAUAUUACGGCCC | – | 0.694 ± 1.1
CAUAAGCAAUAUUACGGGAG | -1.96 ± 0.097 | -1.14 ± 0.095
CAGCAGCAAUAUUACGACCC | – | -1.1 ± 0.92
CUCGAGCAAUAUUACGGUUU | – | -4.58 ± 0.51
UUACAGCAAUAUUACGCCGC | -3.19 ± 0.56 | -1.33 ± 1.2
UUAGAGCAAUAUUACGUUGG | -1.89 ± 0.1 | -1.59 ± 0.14
GCUUAGCAAUAUUACGCUGG | -2.47 ± 1.1 | –
CAAUAGCAAUAUUACGUGGG | -3.7 ± 0.15 | -3.49 ± 0.21
ACAUAGCAAUAUUACGAUCA | -1.71 ± 0.087 | -0.779 ± 0.098
CUCCAGCAAUAUUACGGCUG | -2.12 ± 0.22 | -2.99 ± 0.4

Sequence | self-splicing fitness (ln) (30 °C) | self-splicing fitness (ln) (37 °C)
ACAGAGCAAUAUUACGACCC | -3.57 ± 1 | -1.64 ± 0.68
UUGAAGCAAUAUUACGGGCC | -3.3 ± 0.64 | –
AUCUAGCAAUAUUACGUUUA | -2.26 ± 0.13 | -2.3 ± 0.13
CCAGAGCAAUAUUACGCUCU | -4.29 ± 1 | -3.11 ± 0.53
CGUUAGCAAUAUUACGCCAU | -4.26 ± 1 | –
CUGGAGCAAUAUUACGAUUC | – | -2.39 ± 1.1
GCGCAGCAAUAUUACGAGCC | -3.28 ± 0.74 | -1.54 ± 0.54
GUAGAGCAAUAUUACGCCAU | – | -2.08 ± 1.1
AUCAAGCAAUAUUACGUUUC | -4.59 ± 0.72 | –
GGUUAGCAAUAUUACGUAGA | -0.641 ± 0.76 | 0.265 ± 0.55
CAGUAGCAAUAUUACGUCGA | -3.45 ± 0.25 | -1.49 ± 0.17
CGAGAGCAAUAUUACGGAUU | – | -3.4 ± 1
CUUCAGCAAUAUUACGCCCC | -2.66 ± 1.1 | –
CUGGAGCAAUAUUACGAGCC | -2.48 ± 1.1 | –
AUUUAGCAAUAUUACGUUGC | – | -2.88 ± 1.1
CUUAAGCAAUAUUACGGCUA | – | -3.35 ± 0.6
UUUGAGCAAUAUUACGGUAC | – | -2.44 ± 0.78
GUAGAGCAAUAUUACGUAGC | – | -2.09 ± 0.6
CCAGAGCAAUAUUACGUAAC | -3.56 ± 0.37 | -1.96 ± 0.32
CUGAAGCAAUAUUACGAUCC | – | -2.36 ± 0.78
GUGGAGCAAUAUUACGAGGG | – | -3.17 ± 0.6

Full records as entered above. Values in the order: self-splicing fitness (ln) (30 °C)	self-splicing fitness (ln) (37 °C)
GGGGAGCAAUAUUACGUUGC is entered as -1.86 ± 0.71	–
GGGCAGCAAUAUUACGGCCC is entered as –	0.694 ± 1.1
GUAGAGCAAUAUUACGUAGC is entered as –	-2.09 ± 0.6
GUAGAGCAAUAUUACGCCAU is entered as –	-2.08 ± 1.1

Going on with the list:

Sequence | self-splicing fitness (ln) (30 °C) | self-splicing fitness (ln) (37 °C)
AGACAGCAAUAUUACGUCGG | -2.44 ± 0.15 | -0.528 ± 0.15
CGUUAGCAAUAUUACGGCCC | – | -1.49 ± 0.66
CGGUAGCAAUAUUACGCUUC | -3.87 ± 0.52 | –
AUUGAGCAAUAUUACGAUAA | -4.21 ± 0.6 | –
AUCGAGCAAUAUUACGAUAG | -3.68 ± 0.22 | -3.23 ± 0.2
GUACAGCAAUAUUACGCCAA | -3.41 ± 0.6 | –
CCUCAGCAAUAUUACGGUCC | – | -3.22 ± 0.62
UGACAGCAAUAUUACGUGAU | -3.05 ± 0.11 | -0.351 ± 0.084
UUGGAGCAAUAUUACGCGCU | -2.9 ± 0.61 | –
GGUCAGCAAUAUUACGGACU | – | -1.14 ± 0.82
UUGGAGCAAUAUUACGAAAC | -3.88 ± 0.76 | –
GUUGAGCAAUAUUACGAUAC | -2.2 ± 0.57 | –
CAUGAGCAAUAUUACGGCCA | -3.34 ± 1 | –
UUUAAGCAAUAUUACGAGGC | -3.57 ± 0.53 | -0.693 ± 1.4
GAAGAGCAAUAUUACGCCAU | -3.34 ± 0.65 | -1.61 ± 0.37
CUCGAGCAAUAUUACGUAAC | – | -1.84 ± 1.1
AGAGAGCAAUAUUACGCGAU | -4.9 ± 0.72 | –
GUCGAGCAAUAUUACGUUAA | -4.03 ± 0.74 | –
AUUGAGCAAUAUUACGCACG | – | -2.39 ± 1.1
GCGGAGCAAUAUUACGGCCA | -2.79 ± 0.87 | -1.5 ± 0.53

— the supplement of paper PMC7877785
